PubChem BioAssay AID686937 | Drosophila RNAi Screening Center, 2013
In all, the deposit lists about 23,000 reagents; this is an unselected part of those that have a named target and a result. 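Reduced-secretion tags in replicate 1 do not always agree with the z-scores; no criterion for assigning the tags was given.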 A plus sign joins genes that one reagent is predicted to hit. Reagent sequences are not shown. Not given: the amount of reagent.

- Assay: 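Genes whose loss weakens secretory pathway function in fly cells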 (primary screen)
- Cells: Drosophila S2 cells expressing secreted horseradish peroxidase
- Knock-down reagent: long dsRNA against Drosophila genes
- Timing: about 5.5 days (5 days dsRNA, then 12 h reporter induction)
- Treatment: reporter expression induced after 5 days of dsRNA, read 12 h later; inducer not stated
- Read-out: 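Chemiluminescent measurement of peroxidase in the medium 12 h after reporter induction, following 5 days of dsRNA, given as a z-score per plate; higher means more secretion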
- Scale: z-score: higher = more reporter secreted into medium

| predicted target | DRSC id | z-score, replicate 1 | z-score, replicate 2 | z-score, replicate 3 | z-score, replicate 4 | phenotype, replicate 1 |
| --- | --- | --- | --- | --- | --- | --- |
| 140up | DRSC12634 | 0.59 | 0.44 | – | – | – |
| miple2 | DRSC08723 | 0.3 | 0.34 | – | – | – |
| CG12075 | DRSC17801 | -0.12 | 0.05 | – | – | – |
| IKKbeta | DRSC16714 | 0.47 | 0.49 | – | – | – |
| Nse1 | DRSC02147 | 0.17 | 0.14 | – | – | – |
| Faf2 | DRSC03325 | 0.44 | 0.21 | – | – | – |
| CG6425 | DRSC16038 | 0.22 | 0.48 | – | – | – |
| dtn | DRSC17939 | 0.4 | 0.52 | – | – | – |
| CG1307 | DRSC12492 | 0.37 | 0.24 | – | – | – |
| Amyrel | DRSC05920 | 0.19 | 0.25 | – | – | – |
| CG14907 + Mettl4 | DRSC15026 | -0.24 | 0.23 | – | – | – |
| CG14907 + Mettl4 | DRSC15027 | 0.08 | 0.08 | – | – | – |
| CG31549 | DRSC21688 | 1.94 | 0.03 | – | – | – |
| Snrk | DRSC07192 | 0.28 | 0.26 | – | – | – |
| CG14300 | DRSC14779 | 0.35 | 0.58 | – | – | – |
| AstCC | DRSC02404 | -0.03 | 0.4 | – | – | – |
| Polr2H | DRSC11642 | -3.37 | -4.41 | – | – | reduced secretion |
| Lrt | DRSC06045 | 0.36 | 0.56 | – | – | – |
| CG15548 | DRSC15086 | 0.2 | 0.52 | – | – | – |
| Alp2 | DRSC04354 | 0.25 | 0.29 | – | – | – |
| GILT1 | DRSC16565 | 0.16 | 0.32 | – | – | – |
| Cp15 | DRSC11118 | 0.28 | 0.24 | – | – | – |
| jdp | DRSC16975 | 0.47 | 0.39 | – | – | – |
| Pof | DRSC04405 | 0.31 | 0.25 | – | – | – |
| CG13031 | DRSC09911 | 0.49 | 0.55 | – | – | – |

Reformatted: entries from further up
predicted target	DRSC id	z-score, replicate 1	z-score, replicate 2	z-score, replicate 3	z-score, replicate 4	phenotype, replicate 1
CG1307	DRSC12492	0.37	0.24			
Amyrel	DRSC05920	0.19	0.25			
CG14907 + Mettl4	DRSC15026	-0.24	0.23			
CG14907 + Mettl4	DRSC15027	0.08	0.08			
CG31549	DRSC21688	1.94	0.03			

The listing continues:
| predicted target | DRSC id | z-score, replicate 1 | z-score, replicate 2 | z-score, replicate 3 | z-score, replicate 4 | phenotype, replicate 1 |
| --- | --- | --- | --- | --- | --- | --- |
| LpR2 | DRSC13726 | 0.71 | 0.68 | – | – | – |
| LpR2 | DRSC13728 | 0.31 | 0.48 | – | – | – |
| LpR2 | DRSC15655 | 0.27 | 0.2 | – | – | – |
| LpR2 | DRSC15658 | 0.39 | 0.36 | – | – | – |
| Alk | DRSC05918 | 0.24 | 0.29 | -0.15 | 0.28 | – |
| ND-ASHI | DRSC18291 | 0.26 | 0.58 | – | – | – |
| Uba3 | DRSC06377 | 0.13 | 0.29 | – | – | – |
| Nup133 | DRSC16150 | -6.09 | -0.72 | – | – | reduced secretion |
| elB | DRSC03527 | 0.12 | 0.29 | – | – | – |
| CG31206 | DRSC13388 | 0.23 | 0.14 | – | – | – |
| CG11560 | DRSC09843 | 0.57 | 0.3 | – | – | – |
| lva | DRSC18403 | -0.17 | 0.12 | – | – | – |
| CG14330 | DRSC14809 | 0.06 | 0.46 | – | – | – |
| aqrs | DRSC14724 | 0.47 | 0.33 | – | – | – |
| eIF2Bdelta | DRSC04058 | -2.35 | -0.48 | – | – | reduced secretion |
| Hydr2 | DRSC00607 | 0.37 | 0.51 | – | – | – |
| Sec23 | DRSC12387 | -3.16 | -1.75 | -0.57 | -3.62 | reduced secretion |
| Ance-2 | DRSC02539 | 0.11 | 0.23 | – | – | – |
| CG10481 | DRSC02063 | 0.22 | 0.31 | – | – | – |
| Ugt35E2 | DRSC16083 | 0.54 | 0.69 | – | – | – |
| CG4872 | DRSC19921 | 0.43 | 0.66 | – | – | – |
| CCHa1 | DRSC14821 | -4.72 | -1.19 | – | – | – |
| Alg9 | DRSC14407 | 0.12 | 0.23 | – | – | – |
| CG43134 | DRSC17318 | -1.07 | 0.15 | – | – | – |
| CG43338 | DRSC22055 | 0.92 | 0.83 | – | – | – |
| Hs3st-B | DRSC20067 | 0.53 | 0.24 | – | – | – |
| klg | DRSC13591 | 0.8 | 0.51 | – | – | – |
| klg | DRSC16978 | -0.37 | -0.37 | – | – | – |
| Sec8 | DRSC12300 | 0.23 | 0.15 | – | – | – |
| CG9646 | DRSC07342 | 0.22 | 0.23 | – | – | – |
| CG3511 | DRSC04382 | 0.17 | 0.19 | – | – | – |
